# Test results published in patent US20160201132A1, “GENE EXPRESSION BIOMARKERS OF LAQUINIMOD RESPONSIVENESS” (Teva Pharmaceutical Industries Ltd., priority 2013, published 2016).
# Further values from the same series stand in other lists.
# Test system: PBMC of RRMS patients
# Experiment: Gene expression microarray analysis (HG-U133A-2) of PBMC from RRMS patients treated with LAQ, ancillary study to ALLEGRO
# Type: in vivo, human
# Conditions: for Fold-Change (1.0 vs. 0.0): one month of treatment
# Source text: The goal of this ancillary study was to characterize gene expression changes and corresponding biological mechanisms induced in PBMC of RRMS patients by LAQ treatment. According to ALLEGRO clinical trial inclusion criteria, 25 patients were randomly assigned to receive LAQ (n=13, age 38.8±2.3 years, female/male ratio: 8/5) or placebo (n=12, age 37.2±3.4 years, female/male ratio: 8/4).
# Peripheral blood samples were obtained from RRMS patients at baseline before start of LAQ treatment or placebo, after 0, 1, 6 and 24 month of treatment (visit 0, 1, 6 and 7 according to ALLEGRO clinical trial protocol correspondently) for gene microarray analysis.
# Briefly, 1) Peripheral blood mononuclear cells (PBMC) were obtained from RRMS patients that participated in ALLEGRO and were treated daily with 0.6 mg LAQ or placebo. PBMC were subjected for gene expression analysis (HU-133A-2-Affymatrix arrays) at baseline and at 1 and 6 months of LAQ treatment; 2) Data was analyzed by Partek Genomics Solution software. Most informative genes (MIGs) were defined as those that differentiated between groups with p<0.01. Gene functional annotation, enrichment and pathway analysis were performed by Ingenuity software. For each time point, genes that changed in placebo group were excluded from further analysis; and 3) Verification of LAQ related mechanism was performed by Western blot.
# PBMC were extracted from 15 ml peripheral blood, separated by Ficoll-Hypaque gradient. Total RNA was extracted using both Trizol (Invitrogen, USA) and Phase-Lock-Gel columns (Eppendorf, Germany) including a DNase digestion step. RNA integrity was assessed by RNA Experion automated electrophoresis system (Bio-Rad Laboratories, Hercules, Calif.).
# Probe synthesis using 3 μg total RNA, hybridization, detection, and scanning was performed according to the standard Affymetrix, Inc. USA protocols; cDNA was synthesized using the Two-Cycle cDNA Synthesis Kit (Affymetrix, Inc., USA), and in-vitro transcription performed with the GeneChip IVT Labeling Kit (Affymetrix, Inc., USA). The biotin-labeled IVT-RNA was hybridized to HG-U133A-2 arrays containing 18,400 gene transcripts, each corresponding to 14,500 well-annotated human genes, washed in a GeneChip Fluidics Station 450 (Hewlett Packard, USA, GeneArray-™ scanner G2500A) and scanned according to the manufacturer's protocol (Affymetrix, Inc., USA).
# Data analysis was performed on Partek Genomics Solution software (www.partek.com; Partek Incorporated, St. Louis, Mo.). Expression values were computed from raw CEL files by applying the Robust Multi-Chip Average (RMA) background correction algorithm. RMA correction included: 1) values background correction; 2) quintile normalization; 3) log 2 transformation; and 4) median polish summarization. The ANOVA, Repeated Measures and correlation analysis implicated in Partek software ware applied to evaluate LAQ effects. Most informative genes MIGs were defined as those that differentiated between experimental groups with p<0.01. All p-values were calculated for False Discovery Rate (FDR) multiple test correction at p=0.05.
# Additionally, significance of individual genes was tested by parametric T-test and non parametric Mann-Whitney test using Bootstrapping approach based on repeated permutations of the data with 5% FDR for multiple testing.
# Gene functional annotation, enrichment, and pathway analyses to identify the leading biological pathways that operated under LAQ treatment were performed by Ingenuity Pathways Analysis software (www.ingenuity.com).
# ANOVA analysis was used to compare PBMC gene expression after 1, 6 or 24 month of LAQ treatment with baseline gene expression.
# For each time point inventors performed analysis source of variation in dataset. (FIG. 1). Age, gender and batch effects were considered as confounders regarding LAQ or Placebo related changes. For each time point genes associated with Placebo effect were evaluated and excluded from further analysis. […]
structure (smiles),measurement,setting,value
"CCN(C(=O)c1c(O)c2c(Cl)cccc2n(C)c1=O)c1ccccc1 [LAQ, 5-chloro-N-ethyl-4-hydroxy-1-methyl-2-oxo-N-phenyl-1,2-dihydroquinoline-3-carboxamide]",Fold-Change (1.0 vs. 0.0),RFPL1 207934_at,−1.145
same,Fold-Change (1.0 vs. 0.0),RGS6 210270_at,−1.251
same,Fold-Change (1.0 vs. 0.0),RGS10 204319_s_at,−1.272
same,Fold-Change (4.0 vs. 0.0),"RHBDF2 expression, after six months of treatment",−1.213
same,Fold-Change (1.0 vs. 0.0),RNF11 208924_at,−1.381
same,Fold-Change (4.0 vs. 0.0),"RNF122 expression, after six months of treatment",−1.201
same,Fold-Change (1.0 vs. 0.0),RPA1 201529_s_at,−1.266
same,Fold-Change (4.0 vs. 0.0),"RREB1 expression, after six months of treatment",−1.219
same,Fold-Change (4.0 vs. 0.0),"RTDR1 expression, after six months of treatment",−1.206
same,Fold-Change (4.0 vs. 0.0),"SBF1 expression, after six months of treatment",−1.216
same,Fold-Change (4.0 vs. 0.0),"SCNN1B expression, after six months of treatment",−1.2182
same,Fold-Change (1.0 vs. 0.0),SEMA3E 206941_x_at,−1.141
same,Fold-Change (1.0 vs. 0.0),SEPT6 213666_at,−1.134
same,Fold-Change (4.0 vs. 0.0),"SERPINE1 expression, after six months of treatment",−1.22
same,Fold-Change (1.0 vs. 0.0),SF3B1 211185_s_at,−1.0809
same,Fold-Change (1.0 vs. 0.0),SH3TC2 219710_at,−1.228
same,Fold-Change (4.0 vs. 0.0),"SIGLEC8 expression, after six months of treatment",−1.197
same,Fold-Change (4.0 vs. 0.0),"SIX1 expression, after six months of treatment",−1.213
same,Fold-Change (4.0 vs. 0.0),"SLC1A3 expression, after six months of treatment",−1.205
same,Fold-Change (4.0 vs. 0.0),"SLC1A6 expression, after six months of treatment",−1.205
same,Fold-Change (4.0 vs. 0.0),"SLC4A3 expression, after six months of treatment",−1.221
same,Fold-Change (4.0 vs. 0.0),"SLC22A17 expression, after six months of treatment",−1.2
same,Fold-Change (4.0 vs. 0.0),"SLC23A2 expression, after six months of treatment",−1.22
same,Fold-Change (4.0 vs. 0.0),"SMCHD1 expression, after six months of treatment",−1.2201
same,Fold-Change (1.0 vs. 0.0),SMOX 210357_s_at,−1.407
same,Fold-Change (1.0 vs. 0.0),SNCA 211546_x_at,−1.351
same,Fold-Change (1.0 vs. 0.0),SNX13 215820_x_at,−1.187
same,Fold-Change (1.0 vs. 0.0),SPANXB1 /// SPANXB2 /// SPANXF1 220921_at,−1.169
same,Fold-Change (4.0 vs. 0.0),"SPANXC expression, after six months of treatment",−1.2054
same,Fold-Change (4.0 vs. 0.0),"SPOCK3 expression, after six months of treatment",−1.214
same,Fold-Change (4.0 vs. 0.0),"SST expression, after six months of treatment",−1.2007
same,Fold-Change (1.0 vs. 0.0),SSX2IP 203016_s_at,−1.361
same,Fold-Change (4.0 vs. 0.0),"ST8SIA5 expression, after six months of treatment",−1.206
same,Fold-Change (1.0 vs. 0.0),SUPT5H 201480_s_at,−1.103
same,Fold-Change (1.0 vs. 0.0),TBC1D1 214013_s_at,−1.218
same,Fold-Change (1.0 vs. 0.0),TEF 215673_at,−1.161
same,Fold-Change (4.0 vs. 0.0),"TEK expression, after six months of treatment",−1.214
same,Fold-Change (1.0 vs. 0.0),TF 220109_at,−1.122
same,Fold-Change (4.0 vs. 0.0),"TLE4 expression, after six months of treatment",−1.202
same,Fold-Change (4.0 vs. 0.0),"TMEM151B expression, after six months of treatment",−1.209
same,Fold-Change (1.0 vs. 0.0),TMSB15A 205347_s_at,−1.119
same,Fold-Change (4.0 vs. 0.0),"TNFRSF11A expression, after six months of treatment",−1.216
same,Fold-Change (1.0 vs. 0.0),TNNC2 205388_at,−1.212
same,Fold-Change (1.0 vs. 0.0),TPM1 206116_s_at,−1.496
same,Fold-Change (4.0 vs. 0.0),"TRIM3 expression, after six months of treatment",−1.202
same,Fold-Change (4.0 vs. 0.0),"TRIM15 expression, after six months of treatment",−1.203
same,Fold-Change (1.0 vs. 0.0),TSC22D1 215111_s_at,−1.614
same,Fold-Change (1.0 vs. 0.0),TSPAN32 220558_x_at,−1.156
same,Fold-Change (1.0 vs. 0.0),TUBA4A 212242_at,−1.256
same,Fold-Change (1.0 vs. 0.0),UBE2N 212751_at,−1.102
same,Fold-Change (4.0 vs. 0.0),"UCP3 expression, after six months of treatment",−1.199
same,Fold-Change (4.0 vs. 0.0),"UNKL expression, after six months of treatment",−1.2
same,Fold-Change (1.0 vs. 0.0),USP47 221518_s_at,−1.076
same,Fold-Change (4.0 vs. 0.0),"VGLL1 expression, after six months of treatment",−1.203
same,Fold-Change (4.0 vs. 0.0),"VPS45 expression, after six months of treatment",−1.204
same,Fold-Change (4.0 vs. 0.0),"WNT7A expression, after six months of treatment",−1.212
same,Fold-Change (1.0 vs. 0.0),XPNPEP1 208453_s_at,−1.191
same,Fold-Change (1.0 vs. 0.0),XPNPEP1 209045_at,−1.197
same,Fold-Change (1.0 vs. 0.0),ZBTB20 205383_s_at,−1.137
same,Fold-Change (1.0 vs. 0.0),ZBTB33 214631_at,−1.135
same,Fold-Change (4.0 vs. 0.0),"ZCCHC14 expression, after six months of treatment",−1.22
same,Fold-Change (4.0 vs. 0.0),"ZNF323 expression, after six months of treatment",−1.209
same,Fold-Change (4.0 vs. 0.0),"gene A4GALT, after six months of LAQ",−1.136
same,Fold-Change (4.0 vs. 0.0),"gene ABCA4, after six months of LAQ",−1.253
same,Fold-Change (4.0 vs. 0.0),"gene ABCA6, after six months of LAQ",−1.138
same,Fold-Change (4.0 vs. 0.0),"gene ABCC1, six months of treatment",−1.153
same,Fold-Change (4.0 vs. 0.0),"gene ABCF3, after six months of LAQ",−1.13
same,Fold-Change (4.0 vs. 0.0),gene ABHD6,−1.186
same,Fold-Change (4.0 vs. 0.0),"gene ABI3BP, PBMC, six months of LAQ treatment",−1.115
same,Fold-Change (4.0 vs. 0.0),gene ABO,−1.19
same,Fold-Change (4.0 vs. 0.0),"gene ACCN2, PBMC, six months of LAQ treatment",−1.115
same,Fold-Change (4.0 vs. 0.0),"gene ACE2, after six months of LAQ",−1.14
same,Fold-Change (4.0 vs. 0.0),"gene ACE, after six months of LAQ",−1.129
same,Fold-Change (4.0 vs. 0.0),gene ACRV1,−1.191
same,Fold-Change (4.0 vs. 0.0),"gene ACRV1, six months of treatment",−1.151
same,Fold-Change (4.0 vs. 0.0),"gene ACTN2, PBMC, six months of LAQ treatment",−1.122
same,Fold-Change (4.0 vs. 0.0),"gene ACTN2, after six months of LAQ",−1.143
same,Fold-Change (4.0 vs. 0.0),gene ACVR1B,−1.191
same,Fold-Change (4.0 vs. 0.0),"gene ADAM5P, six months of treatment",−1.1589
same,Fold-Change (4.0 vs. 0.0),"gene ADAM 18, six months of treatment",−1.155
same,Fold-Change (4.0 vs. 0.0),"gene ADAM22, after six months of LAQ",−1.247
same,Fold-Change (4.0 vs. 0.0),"gene ADAMTS7, PBMC, six months of LAQ treatment",−1.112
